Record: PubChem BioAssay AID743454 (Peter MacCallum Cancer Centre, 2014)
Purpose: 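Search for knock-downs that restore vorinostat killing in resistant colon cancer cells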 (primary screen). Cells: human HCT116-VR colon cancer cells, selected for vorinostat resistance. Knock-down reagent: siRNA pool against human genes, 40 nM siRNA pool. Time to read-out: vorinostat for 24 h, read-out about 72 h after transfection. Challenge: vorinostat at 2.5 µM final. Read-out: 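Two measures, CellTiter-Fluor viability and luminescent caspase 3/7 activity, each as fold change against same-plate mock wells, mean of duplicates, then screen-wide robust z-score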. Scale: viability robust z-score: higher = more viable cells than screen typical; caspase robust z-score: higher = more caspase 3/7 activity than screen typical. Hit rule: 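Hits are knock-downs in viability class RV1/RV2 or caspase class CA1/CA2, excluding ones that killed cells in the no-drug cell-count arm; hits then retested with single siRNAs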.
This is an unselected part of about 18,000 reagents. 450 of them (2.5%) count as active. 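Single biological run; no consistent viability z cut-off exists, so the class columns, not z-scores, define the calls.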 Entries without a mark were called inactive.

target	viability hit class	caspase hit class	viability robust z-score	caspase robust z-score
SHOX (SHOX homeobox)	no change	no change	-0.34	-0.4
DDX23 (DEAD-box helicase 23)	no change	no change	-1.86	0.84
SLX9 (SLX9 ribosome biogenesis factor)	no change	no change	0.43	-0.15
BET1L (Bet1 golgi vesicular membrane trafficking protein like)	no change	no change	-0.8	2.17
GMEB1 (glucocorticoid modulatory element binding protein 1)	no change	no change	0.3	-1.21
GABRA2 (gamma-aminobutyric acid type A receptor subunit alpha2)	no change	no change	-0.05	-0.28
ARMC6 (armadillo repeat containing 6)	no change	no change	1.07	2.51
REPS2 (RALBP1 associated Eps domain containing 2)	no change	no change	-0.95	-0.47
ECPAS (Ecm29 proteasome adaptor and scaffold)	no change	no change	0.26	0.09
NDUFAF2 (NADH:ubiquinone oxidoreductase complex assembly factor 2)	no change	no change	0.11	-0.86
VBP1 (VHL binding protein 1)	no change	no change	-0.52	-1
ASB13 (ankyrin repeat and SOCS box containing 13)	no change	no change	1.23	-0.36
GNPNAT1 (glucosamine-phosphate N-acetyltransferase 1)	no change	no change	0.37	-0.3
PNKP (polynucleotide kinase 3'-phosphatase)	RV2 (reduced viability) (active)	no change	-3.52	3.63
IAPP (islet amyloid polypeptide)	no change	no change	0.95	-0.7
GCM1 (GCM transcription factor 1)	no change	no change	1.26	-0.89
TLX1 (T cell leukemia homeobox 1)	no change	no change	0.15	0.86
NPDC1 (neural proliferation, differentiation and control 1)	no change	no change	0.03	2.19
TSEN15 (tRNA splicing endonuclease subunit 15)	no change	no change	1.03	-0.38
SLC35D3	no change	no change	-0.7	-0.62
RNF169 (ring finger protein 169)	no change	no change	0.92	0.03
GSPT1 (G1 to S phase transition 1)	no change	no change	-2.86	0.12
WASF1 (WASP family member 1)	no change	no change	0.23	-0.56
TMEM184A (transmembrane protein 184A)	no change	no change	-0.38	0.72
CNPPD1 (cyclin Pas1/PHO80 domain containing 1)	no change	no change	0.02	0
ANKRD10 (ankyrin repeat domain 10)	no change	no change	-0.24	-0.06
PLCD1 (phospholipase C delta 1)	no change	no change	-0.3	1.31
FEM1A (fem-1 homolog A)	no change	no change	-0.65	1.21
TOMM34 (translocase of outer mitochondrial membrane 34)	no change	no change	0.08	2.59
FARSA (phenylalanyl-tRNA synthetase subunit alpha)	no change	no change	1.21	-0.5
AIP (AHR interacting HSP90 co-chaperone)	no change	no change	-0.18	-0.02
PTPN7 (protein tyrosine phosphatase non-receptor type 7)	no change	no change	0.14	0.3
SERF1A (small EDRK-rich factor 1A)	no change	no change	-0.29	-0.55
SPRING1 (SREBF pathway regulator in golgi 1)	no change	no change	-0.15	-0.88
REV3L (REV3 like, DNA directed polymerase zeta catalytic subunit)	no change	no change	0.18	-0.64
AP3M1 (adaptor related protein complex 3 subunit mu 1)	no change	no change	1.96	-0.2
C8orf33 (chromosome 8 open reading frame 33)	no change	no change	-1.64	3.58
LAMP2 (lysosome associated membrane protein 2)	no change	no change	-0.71	-0.88
SPTA1 (spectrin alpha, erythrocytic 1)	no change	no change	-1.62	2.88
SLC9C1	no change	no change	0.64	-0.46
PICK1 (protein interacting with PRKCA 1)	no change	no change	2.58	0.18
PLP1 (proteolipid protein 1)	no change	no change	-0.42	-0.23

Targets above whose target name begins with C or c:
target	viability hit class	caspase hit class	viability robust z-score	caspase robust z-score
CNPPD1 (cyclin Pas1/PHO80 domain containing 1)	no change	no change	0.02	0
C8orf33 (chromosome 8 open reading frame 33)	no change	no change	-1.64	3.58

Continued.
target	viability hit class	caspase hit class	viability robust z-score	caspase robust z-score
CXADR (CXADR cell adhesion molecule)	no change	no change	0.97	-0.65
OR11H12 (olfactory receptor family 11 subfamily H member 12)	no change	no change	0.05	0.52
ESRRA (estrogen related receptor alpha)	no change	no change	-0.16	-0.5
PROM1 (prominin 1)	no change	no change	0.32	1.25
EXOC1 (exocyst complex component 1)	no change	no change	-0.36	1.79
EIF3F (eukaryotic translation initiation factor 3 subunit F)	no change	no change	-2.39	0.64
CPLANE1 (ciliogenesis and planar polarity effector complex subunit 1)	no change	no change	-1.2	-1.04
TAF12 (TATA-box binding protein associated factor 12)	no change	no change	-1.7	2.49
PNO1 (partner of NOB1 homolog)	no change	no change	-2.05	-1.24
PRKCE (protein kinase C epsilon)	no change	no change	0.28	1.69
BCL6B (BCL6B transcription repressor)	no change	no change	1.31	0.46
LUM (lumican)	no change	no change	0.46	0.16
TNFSF15 (TNF superfamily member 15)	no change	no change	0.01	0.27
HNRNPH2 (heterogeneous nuclear ribonucleoprotein H2)	no change	no change	0.16	0.01
GFM1 (G elongation factor mitochondrial 1)	no change	no change	-0.78	0.5
FBXL3 (F-box and leucine rich repeat protein 3)	no change	no change	-0.21	0.9
ZNF141 (zinc finger protein 141)	no change	no change	-0.2	-0.4
DDIAS (DNA damage induced apoptosis suppressor)	no change	no change	-0.75	-0.01
PRPF4 (pre-mRNA splicing tri-snRNP complex factor PRPF4)	no change	no change	-0.97	2.68
FHIP1B (FHF complex subunit HOOK interacting protein 1B)	no change	no change	-1.27	0.22
MYL9 (myosin light chain 9)	no change	no change	0.96	-0.6
APOM (apolipoprotein M)	no change	no change	0.73	2.73
NOG (noggin)	no change	no change	-1.52	4.08
S1PR4 (sphingosine-1-phosphate receptor 4)	no change	no change	-0.43	-0.13
KRT24 (keratin 24)	no change	no change	0.74	0.2
GORAB (golgin, RAB6 interacting)	no change	no change	-1.6	1.74
CIMIP1 (ciliary microtubule inner protein 1)	no change	no change	1.34	-0.52
DAB2 (DAB adaptor protein 2)	no change	no change	-2.5	1.89
LY6H (lymphocyte antigen 6 family member H)	no change	no change	0.74	0.58
NLRP13 (NLR family pyrin domain containing 13)	no change	no change	0.66	-0.74
PARP6 (poly(ADP-ribose) polymerase family member 6)	no change	no change	-0.55	4.47
